Measurements from PMC8552724.
Tags and fusion partners may be left off the protein sequences shown.

Test system: T1, AbrB
T1 sequence (looked up): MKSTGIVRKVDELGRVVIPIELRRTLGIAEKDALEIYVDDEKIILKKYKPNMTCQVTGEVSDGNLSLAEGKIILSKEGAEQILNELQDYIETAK
Experiment: EMSA
Conditions: poly(dI:dC); recombinant protein; residues 1-94; protein details: His-tag (pET21b, BamHI/SalI); label: FAM; probe letters rebuilt from the primers and the genome

Sequence: CAGCTATAACATATGATGGAAGAGAAATACCAGTGTATTCATCCAAATGGCCATTCAACAAATGAAAATGGCATAAGAATTTAAAAAATAAATAATATGGAATGGATACCATTTAAATGCTTACATTTCTTATATAAATCAAAAAACATTCACAAGTTGTCCATGTTAATTTACAAAAAGAGGTGTGAGCAAGTAATATAATGATCAATGTGGTACATGAATCGTGATCAAGTACAATAAACAATAACTACATTTCAGGTGTTTTGGTATATTTTTATAATGCCAAAACACCTTTTTGTGAAAATGGATTTTTTTAAGGTCACTTTTAAA (double strand) [Psip1Ab1-F (-531 to -202)]
- binding result: binds
